Test results published in patent US20250042956A1.
These are yes or no findings as the source states them, for the method shown. Binding seen in cells or lysates may run through a third protein. Some entries that bind do so weakly or less than the wild type.

Chains of the proteins cited; added tags and fusions are not shown.
UniProt Q9M658: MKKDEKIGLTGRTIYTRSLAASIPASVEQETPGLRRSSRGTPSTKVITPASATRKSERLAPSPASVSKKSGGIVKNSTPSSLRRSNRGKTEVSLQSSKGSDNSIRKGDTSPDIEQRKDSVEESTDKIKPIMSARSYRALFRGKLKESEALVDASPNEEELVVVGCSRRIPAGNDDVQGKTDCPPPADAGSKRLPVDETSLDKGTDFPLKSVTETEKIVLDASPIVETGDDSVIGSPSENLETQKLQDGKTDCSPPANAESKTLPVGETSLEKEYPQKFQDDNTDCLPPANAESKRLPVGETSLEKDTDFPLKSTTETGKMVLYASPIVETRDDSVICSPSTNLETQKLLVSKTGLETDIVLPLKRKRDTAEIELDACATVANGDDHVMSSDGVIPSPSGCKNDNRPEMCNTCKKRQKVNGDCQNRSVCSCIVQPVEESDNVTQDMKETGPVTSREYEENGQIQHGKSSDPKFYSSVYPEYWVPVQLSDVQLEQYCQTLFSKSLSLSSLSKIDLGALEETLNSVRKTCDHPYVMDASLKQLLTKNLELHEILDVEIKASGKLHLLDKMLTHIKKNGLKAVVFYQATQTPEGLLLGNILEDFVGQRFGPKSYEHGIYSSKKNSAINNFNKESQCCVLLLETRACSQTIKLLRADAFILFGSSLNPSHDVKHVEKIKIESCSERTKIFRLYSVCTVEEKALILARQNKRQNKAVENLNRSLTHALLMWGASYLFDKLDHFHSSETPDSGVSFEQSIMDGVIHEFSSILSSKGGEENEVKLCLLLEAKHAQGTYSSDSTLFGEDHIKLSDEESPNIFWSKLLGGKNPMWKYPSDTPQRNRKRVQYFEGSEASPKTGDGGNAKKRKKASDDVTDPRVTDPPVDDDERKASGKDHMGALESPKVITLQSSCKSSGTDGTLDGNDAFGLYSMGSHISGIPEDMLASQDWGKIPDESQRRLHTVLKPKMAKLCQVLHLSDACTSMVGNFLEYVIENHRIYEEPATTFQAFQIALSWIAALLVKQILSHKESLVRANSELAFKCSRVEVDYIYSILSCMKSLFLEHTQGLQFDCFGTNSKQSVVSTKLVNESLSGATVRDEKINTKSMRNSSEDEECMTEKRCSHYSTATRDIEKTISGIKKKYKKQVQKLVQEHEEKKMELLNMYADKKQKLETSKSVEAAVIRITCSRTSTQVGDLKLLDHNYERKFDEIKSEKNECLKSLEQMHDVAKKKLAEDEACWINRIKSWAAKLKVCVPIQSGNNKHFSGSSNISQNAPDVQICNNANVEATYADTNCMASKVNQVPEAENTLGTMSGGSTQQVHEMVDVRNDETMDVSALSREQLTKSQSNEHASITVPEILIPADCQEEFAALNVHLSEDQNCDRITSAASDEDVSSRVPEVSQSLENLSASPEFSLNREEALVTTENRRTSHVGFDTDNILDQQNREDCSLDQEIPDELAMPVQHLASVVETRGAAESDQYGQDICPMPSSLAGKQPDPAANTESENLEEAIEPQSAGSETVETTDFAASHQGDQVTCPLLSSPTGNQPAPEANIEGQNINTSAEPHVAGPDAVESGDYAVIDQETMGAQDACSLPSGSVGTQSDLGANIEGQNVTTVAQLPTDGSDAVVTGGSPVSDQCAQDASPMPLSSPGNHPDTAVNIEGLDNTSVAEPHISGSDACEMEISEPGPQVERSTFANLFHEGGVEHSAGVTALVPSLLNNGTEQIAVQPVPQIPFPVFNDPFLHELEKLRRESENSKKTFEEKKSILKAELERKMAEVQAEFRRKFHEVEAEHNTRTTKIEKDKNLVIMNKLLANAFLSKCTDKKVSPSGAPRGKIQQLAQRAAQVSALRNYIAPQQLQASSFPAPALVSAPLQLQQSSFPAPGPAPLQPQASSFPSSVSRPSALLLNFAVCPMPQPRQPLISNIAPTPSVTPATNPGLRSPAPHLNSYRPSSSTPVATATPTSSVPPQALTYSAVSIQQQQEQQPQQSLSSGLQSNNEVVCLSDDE

Molecular target: T1, PIAL2 (Arabidopsis thaliana) (UniProt F4JYG0)
T1 sequence: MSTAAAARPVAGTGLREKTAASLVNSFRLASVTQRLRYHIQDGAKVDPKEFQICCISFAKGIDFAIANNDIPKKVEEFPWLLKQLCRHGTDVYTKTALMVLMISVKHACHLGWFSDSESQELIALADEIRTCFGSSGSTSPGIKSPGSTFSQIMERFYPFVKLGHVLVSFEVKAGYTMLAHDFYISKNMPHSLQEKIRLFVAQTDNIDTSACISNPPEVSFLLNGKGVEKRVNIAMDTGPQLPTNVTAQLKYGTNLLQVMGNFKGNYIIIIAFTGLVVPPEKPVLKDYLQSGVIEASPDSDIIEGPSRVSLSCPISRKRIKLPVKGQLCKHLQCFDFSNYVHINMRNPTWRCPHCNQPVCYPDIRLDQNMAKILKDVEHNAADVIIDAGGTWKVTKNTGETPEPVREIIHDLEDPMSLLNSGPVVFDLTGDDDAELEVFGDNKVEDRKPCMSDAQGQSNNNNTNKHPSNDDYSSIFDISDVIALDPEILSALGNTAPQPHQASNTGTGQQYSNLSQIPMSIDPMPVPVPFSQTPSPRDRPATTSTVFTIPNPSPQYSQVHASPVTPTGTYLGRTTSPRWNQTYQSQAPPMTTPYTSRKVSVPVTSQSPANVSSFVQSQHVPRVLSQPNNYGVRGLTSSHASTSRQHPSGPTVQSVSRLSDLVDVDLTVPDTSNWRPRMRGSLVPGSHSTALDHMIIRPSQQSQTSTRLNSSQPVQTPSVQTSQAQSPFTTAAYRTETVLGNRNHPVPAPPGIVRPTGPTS
Assay: IP-MS

binding: binds
Substance: epitope tagged MOM1 (from UniProt Q9M658 1-2001)
